Experimental data as given in publication doi:10.1101/2024.09.04.610270.
Substitutions are numbered along the chain they refer to. These are yes or no findings as the source states them, for the method shown. Some binding calls cover weakened binding; strength is not graded here.

T1: arginine/serine-rich zinc knuckle-containing protein 32 (RS2Z32), native full-length, yeast two-hybrid bait (Arabidopsis thaliana) (UniProt Q9FYB7)
T1 sequence: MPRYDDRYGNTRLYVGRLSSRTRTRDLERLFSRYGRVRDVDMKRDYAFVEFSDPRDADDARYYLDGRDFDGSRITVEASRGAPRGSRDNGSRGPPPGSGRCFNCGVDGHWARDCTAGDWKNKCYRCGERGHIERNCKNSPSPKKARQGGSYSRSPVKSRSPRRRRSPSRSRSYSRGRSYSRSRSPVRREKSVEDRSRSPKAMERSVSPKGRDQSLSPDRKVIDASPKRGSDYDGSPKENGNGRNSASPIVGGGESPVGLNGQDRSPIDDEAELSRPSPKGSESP

T2: RS2Z32mutRRM (Arabidopsis thaliana) (UniProt Q9FYB7)
T2 sequence: T1 sequence with Y14A, Y46A, F48A

T3: arginine/serine-rich zinc knuckle-containing protein 33 (RS2Z33), native full-length, yeast two-hybrid bait (Arabidopsis thaliana) (UniProt Q8VYA5)
T3 sequence: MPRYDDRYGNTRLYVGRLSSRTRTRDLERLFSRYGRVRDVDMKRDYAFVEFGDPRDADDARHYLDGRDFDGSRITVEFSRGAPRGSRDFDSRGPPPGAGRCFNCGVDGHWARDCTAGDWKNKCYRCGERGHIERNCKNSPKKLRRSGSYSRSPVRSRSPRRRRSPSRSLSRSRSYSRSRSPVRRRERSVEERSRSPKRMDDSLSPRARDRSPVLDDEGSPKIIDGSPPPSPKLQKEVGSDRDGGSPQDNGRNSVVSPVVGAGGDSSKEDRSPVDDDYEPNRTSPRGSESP

T4: RS2Z33mutRRM (Arabidopsis thaliana) (UniProt Q8VYA5)
T4 sequence: T3 sequence with Y14A, Y46A, F48A

B1: Cyp59 (protein, UniProt Q6Q151 1-506)
chain: MSVLIVTSLGDIVIDLHSDKCPLTCKNFLKLCKIKYYNGCLFHTVQKDFTAQTGDPTGTGAGGDSIYKFLYGEQARFYKDEIHLDLKHSKTGTVAMASGGENLNASQFYFTLRDDLDYLDGKHTVFGQIAEGFDTLTRINEAYVDPKNRPYKNIRIKHTHILDDPFDDPPQLAEMMPDASPEGKPKEEVKDDVRLEDDWVPMDEELGAQELEEVIREKAAHSSAVVLESIGDIPEAEVKPPDNVLFVCKLNPVTEDEDLHTIFSRFGTVVSADVIRDFKTGDSLCYAFIEFENKESCEQAYFKMDNALIDDRRIHVDFSQSVSKLWSQFRQKDSQKGKGNGCFKCGSTDHIAKDCVGGPSSKFIVKDQNRQHGGGEGYEMVFEGDVHETPKHNSHERERSEKIQRRSPHGNGEGKRQHRDERDDGRRQHDREDARELERKHRERKERESREDEDRRRRRRREESRDKESRRERDEDDHRSHRDYKERRRERDDRHGREARHERRDR
B2: Cyp71 (protein, UniProt Q8W4D0 1-631)
chain: MEEESKNGGTTIPTEELAVVAVPPVVEEEEPMVGPGPAPRGKRKRPLQFEQAYLDSLPSANMYEKSYMHRDVVTHVAVSAAEFFISGSMDGHLKFWKKKGVGIEFAKHFRSHLGPIEGLAVSIDGLLCCTISNDHAVKIYDVVNYDMMAMIRLPYIPGAVEWVYKQGDVKAKLAVSDRDSLFVHIYDPRSGSNEPIASKEIHMNPIKVMKYNPVSDTMISGDTKGIIEYWSATTLQFPEDEVNFKLKSDTNLFEIIKCKTTISAIEVSPDGKQFSITAPDRRIRVFWFRTGKLRRVYDESLVVAQDLQRSDAPLYRLEAIDFGRRMAVEKELEKTESAPQPNAVFDESSNFLIYATFLGIKVINLHTNTVARILGKVESNERYLRVALYQGDQGGKKVRKIPAAAANVNESKEPLTDPTILCCAFKKHRIYMFSRREPEEPEDASQGRDVFNEKPAADELMSVSDIGNSATTSLPENVIMHTTLGDIHMKLYPEECPKTVENFTTHCRNGYYDNHLFHRVIRGFMIQTGDPLGDGTGGQSIWGREFEDEFHKSLRHDRPFTLSMANAGPNTNGSQFFITTVATPWLDNKHTVFGRVVKGMDVVQGIEKVKTDKNDRPYQDVKILNVTVPKS
B3: GRP7 (protein, UniProt Q03250 1-176)
chain: MASGDVEYRCFVGGLAWATDDRALETAFAQYGDVIDSKIINDRETGRSRGFGFVTFKDEKAMKDAIEGMNGQDLDGRSITVNEAQSRGSGGGGGHRGGGGGGYRSGGGGGYSGGGGSYGGGGGRREGGGGYSGGGGGYSSRGGGGGSYGGGRREGGGGYGGGEGGGYGGSGGGGGW
B4: GRP8 (protein, UniProt Q03251 1-169)
chain: MSEVEYRCFVGGLAWATNDEDLQRTFSQFGDVIDSKIINDRESGRSRGFGFVTFKDEKAMRDAIEEMNGKELDGRVITVNEAQSRGSGGGGGGRGGSGGGYRSGGGGGYSGGGGGGYSGGGGGGYERRSGGYGSGGGGGGRGYGGGGRREGGGYGGGDGGSYGGGGGGW
B5: RZ-1B (protein, UniProt O22703 1-292)
chain: MKDRENDGNLESRIFVGGLSWDVTERQLESTFDRYGKITECQIMVGRDTGRPRGFGFITFTDRRGADDAIKHMHGRELGNKVISVNKAEPKVGGEDVDQLKKGGGYSSRGKGTEDECFKCRRPGHWARDCPSTGDDRERFRVPLAMRSRIGDIDGHRDRYGDRDLEREREREREFDRYMDGRRDRDGGRYSYRDRFDSGDKYEPRDHYPFERYAPPGDRFVSDRYGMPEHHLENEYRGRERSYDRDRYARDTSDRYGDMGPIRDEGRPYRSRPGPYDRPSRPGGRPSSYERW
B6: RZ-1C (protein, UniProt Q8RWN5 1-310)
chain: MAAKEGSRIFVGGLSPEVTDRDLERAFSRFGDILDCQIMLERDTGRSRGFGFITFADRRAMDESIREMHGRDFGDRVISVNRAEPKLGRDDGESHGSRGGRDSGYSIAGKGSFGGGGGGGGRVGEDECFKCGRVGHWARDCPSAGGGRGGPVGGFSSRASAYGGSDGRVDRYADRDRYVDRERYIDDRYDGAARYGARDRFDSREAYIPRDRYASDRYAAPADRFAGGDRYSRGSDRYPPGSYDKARSFERDIAPSAGSDRYGGGRAGGPIRGGGEEGRGFRSRAGAPYERPSRSGGGGAYPSSSTFDRY
B7: PRP38 (protein, UniProt Q8LB54 1-355)
chain: MANRTDPLAKNIRGTNPQNLVEKIVRTKIYQHTFWKEQCFGLTAETLVDKAMELDHLGGTFGGSRKPTPFLCLILKMLQIQPEKEIVVEFIKNDDYKYVRILGAFYLRLTGTDVDVYRYLEPLYNDYRKVRQKLSDGKFSLTHVDEVIEELLTKDYSCDIAMPRLKKRWTLEQNGLLEPRKSVLEDDFEEEEEKEENEGIADGSEDEMDQRRKSPERERERDRDRRRDSHRHRDRDYDRDYDMDRDHDRDYERERGHGRDRDRERDRDHYRERDRDRERGRDRERDRRDRARRRSRSRSRDRKRHETDDVRDREEPKKKKEKKEKMKEDGTDHPNPEIAEMNRLRASLGMKPLRD
B8: MOS12 (protein, UniProt Q8RWV3 1-416)
chain: MIYTAIDNFYLSDEQLKASPSRKDGIDETTEISLRIYGCDLIQEGGILLKLPQAVMATGQVLFQRFYCKKSLAKFDVKIVAASCVWLASKLEENPKKARQVIIVFHRMECRRENLPLEHLDMYAKKFSELKVELSRTERHILKEMGFVCHVEHPHKFISNYLATLETPPELRQEAWNLANDSLRTTLCVRFRSEVVACGVVYAAARRFQVPLPENPPWWKAFDADKSSIDEVCRVLAHLYSLPKAQYISVCKDGKPFTFSSRSGNSQGQSATKDLLPGAGEAVDTKCTAGSANNDLKDGMVTTPHEKATDSKKSGTESNSQPIVGDSSYERSKVGDRERESDREKERGRERDRGRSHRGRDSDRDSDRERDKLKDRSHHRSRDRLKDSGGHSDKSRHHSSRDRDYRDSSKDRRRHH
B9: ALY4 (protein, UniProt Q6NQ72 1-288)
chain: MSGALNMTLDEIVKRGKTARSGGRGISRGRGRGRGGGGRGAGPARRGPLAVNARPSSFTINKPVRRVRSLPWQSGLFEDGLRAAGASGVEVGTRLHVTNLDQGVTNEDIRELFSEIGEVERYAIHYDKNGRPSGTAEVVYPRRSDAFQALKKYNNVLLDGRPMRLEILGGNNSSEAPLSGRVNVNVTGLNGRLKRTVVIQQGGGGRGRVRGGRGGRGPAPTVSRRLPIHNQQGGGMRGGRGGFRARGRGNGGRGRGGGRGNGKKPVEKSAADLDKDLESYHADAMNTS
B10: MAGO (protein, UniProt O23676 1-150)
chain: MAAEEATEFYLRYYVGHKGKFGHEFLEFEFREDGKLRYANNSNYKNDTIIRKEVFLTPAVLKECKRIVSESEILKEDDNNWPEPDRVGKQELEIVLGNEHISFATSKIGSLVDCQSSNDPEGLRIFYYLVQDLKCLVFSLISLHFKIKPI
B11: Y14 (protein, UniProt F4I9J7 1-202)
chain: MANIESEAVDFEPEEDDLMDEEGTAIDGADVSPRAGHPRLKSAIAGANGESAKKTKGRGFREEKDSDRQRRLSSRDFESLGSDGRPGPQRSVEGWIILVSGVHEETQEEDITNAFGDFGEIKNLNLNLDRRSGYVKGYALIEYEKKEEAQSAISAMNGAELLTQNVSVDWAFSSGPSGGESYRRKNSRYGRSQRSRSPRRRY

molecular target: T1, arginine/serine-rich zinc knuckle-containing protein 32 (RS2Z32), native full-length, yeast two-hybrid bait (Arabidopsis thaliana); assay: two-hybrid

Q: With B1 as the binder, how does the binding read?
A: binds

Q: For B2, which binding is on record?
A: no binding

Q: How did the binding turn out when B3 was run?
A: no binding

Q: How did the binding turn out when B4 was run?
A: no binding

Q: Which binding does the source give for B5 here?
A: no binding

Q: Which binding does the source give for B6 here?
A: no binding

Q: How did the binding turn out when B7 was run?
A: no binding

Q: Which binding does the source give for B8 here?
A: no binding

Q: How did the binding turn out when B9 was run?
A: no binding

Q: With B10 as the binder, how does the binding read?
A: no binding

Q: How did the binding turn out when B11 was run?
A: no binding

molecular target: T2, RS2Z32mutRRM (Arabidopsis thaliana); assay: two-hybrid

Q: With B1 as the binder, how does the binding read?
A: no binding

molecular target: T3, arginine/serine-rich zinc knuckle-containing protein 33 (RS2Z33), native full-length, yeast two-hybrid bait (Arabidopsis thaliana); assay: two-hybrid

Q: How did the binding turn out when B1 was run?
A: binds

Q: How did the binding turn out when B2 was run?
A: no binding

Q: For B3, which binding is on record?
A: no binding

Q: For B4, which binding is on record?
A: no binding

Q: Which binding does the source give for B5 here?
A: no binding

Q: B6 was tested. Which binding did it give?
A: no binding

Q: Which binding does the source give for B7 here?
A: no binding

Q: For B8, which binding is on record?
A: no binding

Q: B9 was tested. Which binding did it give?
A: no binding

Q: How did the binding turn out when B10 was run?
A: no binding

Q: How did the binding turn out when B11 was run?
A: no binding

molecular target: T4, RS2Z33mutRRM (Arabidopsis thaliana); assay: two-hybrid

Q: B1 was tested. Which binding did it give?
A: no binding
